Data as given in PubChem BioAssay AID686938 (Drosophila RNAi Screening Center, 2013).
Purpose: 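Fly genes required for calcium entry once internal stores are emptied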 (primary screen). System: Drosophila S2R+ cells. Reagents: long dsRNA against Drosophila genes, about 0.25 µg dsRNA per well, roughly 10,000 cells. Timing: 5 days of knock-down before the calcium assay. Conditions: thapsigargin (SERCA pump blocker) to empty calcium stores; entry signal taken 4 min after adding it. Measurement: 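Duplicate raw fluo-4 intensities per well from a plate reader, at rest and four minutes after thapsigargin emptied calcium stores; entry-to-rest ratio filled for only some wells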. Direction: calcium entry signal: higher = stronger calcium signal after store depletion; entry to resting ratio: higher = more calcium entry relative to resting level; resting calcium signal: higher = higher resting calcium signal. Active means: 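Hit if the duplicate-averaged plate z-score for entry over resting signal is under −3; wells with weak total dye signal (Fmax z < −2) or more than 5 off-targets removed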. Meaning of the calls: active = strongly reduced calcium entry; inactive = no strong reduction.
The screen tested about 23,000 reagents; below is a random part of those that have a named target and a result. Over the whole deposit, 75 (0.33%) got an active call. 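Raw plate signals without normalisation; calls rest on plate z-scores that were not deposited; ratio present for only 364 wells.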 Entries without a mark were called inactive. A plus sign joins genes that one reagent is predicted to hit. Not given: the dose of the treatment.

calcium entry signal, replicate 1 (fluorescence units)	calcium entry signal, replicate 2 (fluorescence units)	entry to resting ratio	resting calcium signal, replicate 1 (fluorescence units)	resting calcium signal, replicate 2 (fluorescence units)	Target gene	amplicon
2.59e7	2.92e7		1.33e7	1.43e7	Vps37B	DRSC12165
3.29e7	4.44e7		1.82e7	2.04e7	CG17169	DRSC20905
2.40e7	2.16e7		1.21e7	9.98e6	CG12699	DRSC06162
3.59e7	4.44e7		1.73e7	1.96e7	exex	DRSC10972
3.42e7			1.82e7		CG15141	DRSC02441
4.24e7	2.76e7		1.95e7	1.37e7	CG15141	DRSC02442
2.83e7	2.97e7		1.52e7	1.55e7	CG42568 + DnaJ-60	DRSC04207
3.76e7			2.03e7		CG42568 + DnaJ-60	DRSC04611
5.04e7	3.88e7		2.17e7	1.75e7	CG7094	DRSC03005
3.82e7	3.72e7		1.90e7	1.62e7	stai	DRSC02920
3.46e7	8.28e7		1.84e7	3.02e7	stai	DRSC22235
3.91e7			1.98e7		chico	DRSC03531
3.01e7	3.23e7		1.70e7	1.46e7	srw	DRSC08201
2.75e7	4.11e7		1.49e7	1.86e7	skd	DRSC11898
5.52e7	4.11e7		2.22e7	1.60e7	CG9932	DRSC03275
2.75e7	2.84e7		1.62e7	1.54e7	CG5079	DRSC15713
3.22e7	3.88e7		1.52e7	1.82e7	CG5079	DRSC23061
2.00e7	2.78e7		1.09e7	1.27e7	CG34445	DRSC22404
4.33e7	4.20e7		2.07e7	1.92e7	bru3	DRSC09280
3.09e7	3.58e7		1.43e7	1.46e7	bru3	DRSC09291
2.94e7	3.19e7		1.35e7	1.36e7	bru3	DRSC09292
2.84e7	4.00e7		1.28e7	2.49e7	bru3	DRSC09687
3.04e7	4.83e7		1.49e7	2.15e7	bru3	DRSC09887
4.61e7	3.94e7		2.39e7	1.79e7	bru3	DRSC22732
3.12e7	3.76e7		1.51e7	1.90e7	Sps1	DRSC07549
3.31e7	3.86e7		1.60e7	1.68e7	Mocs1	DRSC11225
4.15e7	4.20e7		2.33e7	1.85e7	CG33346	DRSC22898
4.29e7	4.69e7		2.00e7	3.24e7	Tasp1	DRSC10495
3.73e7			2.02e7		Lrch	DRSC02996
2.29e7	2.65e7		1.18e7	3.70e7	B9d1	DRSC14993
2.76e7	4.39e7		1.37e7	1.95e7	sut3	DRSC07702
2.45e7	4.20e7		1.22e7	2.00e7	hop	DRSC20340
3.57e7	3.58e7		1.82e7	1.78e7	hop	DRSC23334
2.52e7	2.75e7		1.34e7	1.30e7	ND-13B	DRSC10643
2.19e7	4.63e7		1.25e7	2.03e7	CG5402	DRSC15792
4.17e7	3.80e7		2.10e7	1.82e7	CG3803	DRSC04420
3.49e7	4.45e7		1.83e7	2.07e7	comt	DRSC20319
2.10e7	2.47e7		1.07e7	1.26e7	SPR	DRSC17390
2.33e7	2.04e7		1.10e7	9.31e6	SPR	DRSC17886
2.32e7	3.57e7		1.29e7	1.69e7	SPR	DRSC18114
3.97e7	3.63e7		2.38e7	1.70e7	SPR	DRSC21557
4.42e7	3.89e7		1.85e7	1.83e7	Nadk2	DRSC07072
5.21e7	3.12e7		2.49e7	1.35e7	Eo	DRSC20187
4.87e7	4.01e7		3.49e7	1.61e7	CG14995	DRSC08452
3.81e7	3.55e7		1.85e7	1.44e7	CG14995	DRSC22991
2.95e7	3.51e7		3.93e7	1.64e7	dnk	DRSC16933
2.66e7	2.73e7		1.35e7	1.27e7	crb	DRSC16927
4.08e7	5.85e7		5.11e7	2.59e7	Ada2a + Polr2D	DRSC16206
1.54e7	1.43e7		9.18e6	8.59e6	Ada2a + Polr2D	DRSC21598
3.86e7	4.44e7		1.82e7	1.90e7	mrj	DRSC22592
3.18e7	3.43e7		1.55e7	1.56e7	CG31952	DRSC00428
2.40e7	4.17e7		1.23e7	1.94e7	CG31952	DRSC21997
4.78e7			2.73e7		Galt	DRSC03161
4.22e7	4.34e7		1.79e7	1.85e7	CG30015	DRSC05241
4.54e7	4.00e7		2.08e7	1.93e7	CG30015	DRSC07027
3.97e7	4.49e7		1.81e7	1.76e7	CG30015	DRSC07028
2.26e7	2.87e7		1.19e7	1.29e7	Gapdh1	DRSC07433
7.18e7	5.66e7	2.3	3.18e7	2.40e7	CG14418	DRSC18637
3.36e7	4.18e7		1.72e7	1.83e7	CG14418	DRSC23051
